Reference: article PMC6009821
Results are given in words; binding and its absence hold for the method and conditions named. For part of these data: In cells and extracts the contact can be indirect. Some results given as binding are weak or reduced against the parent protein; the word gives no strength.

Assays:
[1] = biological target: Human epidermal growth factor receptor 2 (human (endogenous in NCI-N87)) (UniProt P04626); assay: flow cytometry on cells; NCI-N87 cells treated with 20 μg/ml FITC-AHNP-PEG for 2 h; competitive group pre-treated with 20 μg/ml AHNP-PEG for 1 h; compared to FITC-PEG; only the binder purified
[2] = biological target: Human epidermal growth factor receptor 2 (human (endogenous in NCI-N87)) (UniProt P04626); assay: co-IP; cells treated with 20 μg/mL FITC-AHNP-PEG with or without 20 μg/ml non-FITC AHNP-PEG at 4 °C for 4 h, lysed; supernatant precipitated with biotinylated HER2 antibody on streptavidin agarose beads at 4 °C overnight; fluorescence of immunoprecipitates read; only the binder purified

Row | binding [1] | binding [2] | Binder
1 | binds | – | FCDGFYACYMDV (PEG conjugated (site not stated)) [polyethylene glycol (PEG) linked anti-HER2/neu peptide]
2 | binds | binds | FCDGFYACYMDV (FITC label (site not stated); PEG conjugated (site not stated)) [FITC-labeled AHNP-PEG (polyethylene glycol linked anti-HER2/neu peptide)]
